The values that follow come from PMC6168688.

Assay [1] addresses T1, OBE1, bait of the yeast two-hybrid screen and matrix with MOM1 (A. thaliana) (UniProt Q9S736).
T1 sequence: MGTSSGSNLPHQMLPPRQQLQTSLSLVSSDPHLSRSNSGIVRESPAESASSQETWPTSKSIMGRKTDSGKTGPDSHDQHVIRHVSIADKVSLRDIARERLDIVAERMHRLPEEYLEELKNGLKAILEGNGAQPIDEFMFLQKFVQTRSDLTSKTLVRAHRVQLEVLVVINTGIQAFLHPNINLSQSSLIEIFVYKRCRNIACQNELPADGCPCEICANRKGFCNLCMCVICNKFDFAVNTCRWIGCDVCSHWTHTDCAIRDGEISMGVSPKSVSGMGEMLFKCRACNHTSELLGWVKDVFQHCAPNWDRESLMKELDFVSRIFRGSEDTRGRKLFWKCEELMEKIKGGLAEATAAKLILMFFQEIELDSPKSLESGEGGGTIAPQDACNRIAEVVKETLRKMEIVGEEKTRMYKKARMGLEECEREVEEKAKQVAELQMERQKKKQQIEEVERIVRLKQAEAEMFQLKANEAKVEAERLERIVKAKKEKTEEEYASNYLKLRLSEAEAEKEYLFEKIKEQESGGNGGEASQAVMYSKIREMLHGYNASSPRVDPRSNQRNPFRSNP
In words: two-hybrid; library screen using OBE1 as bait.

Assay [2] concerns the target T1, OBE1, bait of the yeast two-hybrid screen and matrix with MOM1 (A. thaliana). In words: two-hybrid; interaction matrix on SD-AHTL selective media (10-3 dilution), confirmation of the OBE1 screen.

No constants are given. Whether binding was seen depends on the method and setting. A result given as binding can be weak or reduced; the word gives no strength.

“MOM1, cDNA isolated in the OBE1 yeast two-hybrid screen (A. thaliana)”: the binding entry in assay [1] and in assay [2] was “binds” throughout.
